Measured values taken from patent US20240148728A1, “NOVEL METHOD TO BLOCK IN[…] DEATH AND IL-1BETA SECRETION CAUSED BY […] UV I[…] GENETIC AND CHEMICAL INHIBITORS OF ZAKA AND THE NLRP1 INFLAMMASOME” (priority 2021, published 2024).
For some assays here: At least one structure is not confirmed: it was looked up by name or label, or the drawing left a doubt. Some entries share one result that the patent states for a list of compounds.

How the values were obtained:
[1] = tested on: immortalized keratinocytes (N-TERT); test: Pyroptosis / apoptosis in N-TERT keratinocytes (morphology, ASC-GFP, PI, Annexin V, immunoblot); assay type: cell-based, human; settings: membrane ballooning, ASC-GFP specks, PI uptake
From the text: The following antibodies were used in this study: cleaved PARP1 (Abclonal, #WH162766), Cleaved CASP3 (Abclonal, #WH154646), Full length GSDMD-FL (Abcam, #ab210070), IL1β p17 specific (CST, #83186S), CARD8 (Abcam, CARD8-NT: ab19485, CARD8-CT: ab241186), DPP9 (Abcam, ab226334), c-Myc (Santa Cruz Biotechnology, #sc-40), HA tag (Santa Cruz Biotechnology, #sc-805), GAPDH (Santa Cruz Biotechnology, #sc-47724), ASC (Adipogen, #AL-177), CASP1 (Santa Cruz Biotechnology, #sc-622), 11_1B (R&D systems, #AF-201), FLAG (SigmaAldrich, #F3165), NLRP1 (R&D systems, #AF6788), IL18 (Abcam ab207324), cleaved GSDMD-NT (Asp275) (Cell Signaling Technology, #36425), RPL31 (Abclonal, #WH162766), CASP7 (Abcam, ab255818), CASP8 (Abcam, ab32397), cleaved CASP3 (Cell Signaling Technology, #9664). […] Protein concentration was determined using the Bradford assay (Thermo Scientific, #23200) and […] of protein loaded, a part from cleaved GSDMD-NT visualisation where 40 mg of protein was used. […]
N-TERT-ASC-GFP cells were seeded at a cell density of 3000 cells/well of a 96 black well plate (PerkinElmer, CellCarrier-96 Ultra, #6055300). […] Images were then stored and analyzed using the Harmony software (Version 6). Fluorescent and brightfield images acquired on the Operetta high content screening microscope were further analyzed using a scoring system to categorize the percentages of live, apoptotic and pyroptotic cells. […]

3D organotypic skin = test: Secreted cytokines/chemokines from 3D organotypic skin (ELISA, Luminex); assay type: cell-based, human
Procedure: Organotypic cultures were generated by adapting a previously described protocol (Arnette et al., 2016). Briefly, 2 ml of collagen I (4 mg/ml; Corning, #354249) mixed with 7.5×10^5 human fibroblasts were allowed to polymerize over 1-m1 acellular collagen I in 6-well culture inserts (Falcon, #353102) placed in 6-well deep well plate (Falcon, #355467). After 24 hours, 1×10^6 primary human keratinocytes were seeded into the inserts and kept submerged in a 3:1 DMEM (Hyclone, #SH30243.01) and F12 (Gibco, #31765035) mixture with 10% FBS (Hyclone, #SV30160.03), 100 U/ml penicillin-streptomycin (Gibco, #15140122), 10 μM Y-27632 (Tocris, #1254), 10 ng/ml EGF (Sigma-Aldrich, #E9644), 1×10^−10 M cholera toxin (Enzo, #BML-G117-001), 0.4 μg/ml hydrocortisone (Sigma-Aldrich, #H0888), 0.0243 mg/ml adenine (Sigma-Aldrich, #A2786), 5 μg/ml insulin (Sigma-Aldrich, #12643), 5 μg/ml transferrin (Sigma-Aldrich, #T2036) and 2×10^−9 M 3,3′,5′-triiodo-L-thyronine (Sigma-Aldrich, #T6397). After another 24 hours, the organotypic cultures were then raised at the air-liquid interface and fed with the submerged media (without Y-27632 and EGF) below the insert to induce epidermal differentiation. The air-lifting medium was replaced every 2 days and treatments began 10-14 days after airlifting. Organotypic cultures were then harvested 24 hours after treatment and formalin fixed for 24 hours. Fixed tissues were then embedded into wax for histological purposes.
To measure secreted cytokine and chemokine levels a human IL1β enzyme linked immunosorbent assay (ELISA) kit (BD, #557953), human IL-18 ELISA kit (MBL, #7620) or an Immune Monitoring 65-Plex Human ProcartaPlex Panel (EPX650-10065-901) were used according to manufacturer's protocols. Further analysis of Luminex or ELISA profiling of samples was performed using heatmap and PCA analysis on Clustervis (biitdotcsdotutdotee/clustvis/) [Somani et al., Proceeding of SSIC (2019)].

CN[C@@H]1[C@@H](O)[C@@H](O[C@@H]2[C@@H](O)[C@H](O[C@H]3O[C@H]([C@@H](C)O)[C@@H](O)[C@H](O)[C@H]3N)[C@@H](N)C[C@H]2N)OC[C@]1(C)O [G418, Geneticin]
morphological hallmarks of inflammasome activation and pyroptotic cell death [1]: none of the inhibitors that block the ribosome at the pre-elongation stages, including harringtonin, blasticidin and G418 caused any pyroptosis

CC(C)[C@H](N)C(=O)N1CCC[C@H]1B(O)O [VbP, Talabostat]
IL-1β induction relative to untreated and PURO-treated samples (3D organotypic skin): > 200 fold | IL-18 induction relative to untreated and PURO-treated samples (3D organotypic skin): > 200 fold

COc1ccc(C[C@H]2NC[C@H](O)[C@H]2OC(C)=O)cc1 [ANS, Anisomycin]
IL-1β induction relative to untreated and PURO-treated samples (3D organotypic skin): > 200 fold | IL-18 induction relative to untreated and PURO-treated samples (3D organotypic skin): > 200 fold
